Results taken from paper PMC10148843.
No constants are given. Whether binding was seen depends on the method and setting. Binding seen in cells or lysates may run through a third protein. Some entries that bind do so weakly or less than the wild type.

By UniProt entry, the sequences of proteins in these tests, tags left out.
UniProt Q6R327: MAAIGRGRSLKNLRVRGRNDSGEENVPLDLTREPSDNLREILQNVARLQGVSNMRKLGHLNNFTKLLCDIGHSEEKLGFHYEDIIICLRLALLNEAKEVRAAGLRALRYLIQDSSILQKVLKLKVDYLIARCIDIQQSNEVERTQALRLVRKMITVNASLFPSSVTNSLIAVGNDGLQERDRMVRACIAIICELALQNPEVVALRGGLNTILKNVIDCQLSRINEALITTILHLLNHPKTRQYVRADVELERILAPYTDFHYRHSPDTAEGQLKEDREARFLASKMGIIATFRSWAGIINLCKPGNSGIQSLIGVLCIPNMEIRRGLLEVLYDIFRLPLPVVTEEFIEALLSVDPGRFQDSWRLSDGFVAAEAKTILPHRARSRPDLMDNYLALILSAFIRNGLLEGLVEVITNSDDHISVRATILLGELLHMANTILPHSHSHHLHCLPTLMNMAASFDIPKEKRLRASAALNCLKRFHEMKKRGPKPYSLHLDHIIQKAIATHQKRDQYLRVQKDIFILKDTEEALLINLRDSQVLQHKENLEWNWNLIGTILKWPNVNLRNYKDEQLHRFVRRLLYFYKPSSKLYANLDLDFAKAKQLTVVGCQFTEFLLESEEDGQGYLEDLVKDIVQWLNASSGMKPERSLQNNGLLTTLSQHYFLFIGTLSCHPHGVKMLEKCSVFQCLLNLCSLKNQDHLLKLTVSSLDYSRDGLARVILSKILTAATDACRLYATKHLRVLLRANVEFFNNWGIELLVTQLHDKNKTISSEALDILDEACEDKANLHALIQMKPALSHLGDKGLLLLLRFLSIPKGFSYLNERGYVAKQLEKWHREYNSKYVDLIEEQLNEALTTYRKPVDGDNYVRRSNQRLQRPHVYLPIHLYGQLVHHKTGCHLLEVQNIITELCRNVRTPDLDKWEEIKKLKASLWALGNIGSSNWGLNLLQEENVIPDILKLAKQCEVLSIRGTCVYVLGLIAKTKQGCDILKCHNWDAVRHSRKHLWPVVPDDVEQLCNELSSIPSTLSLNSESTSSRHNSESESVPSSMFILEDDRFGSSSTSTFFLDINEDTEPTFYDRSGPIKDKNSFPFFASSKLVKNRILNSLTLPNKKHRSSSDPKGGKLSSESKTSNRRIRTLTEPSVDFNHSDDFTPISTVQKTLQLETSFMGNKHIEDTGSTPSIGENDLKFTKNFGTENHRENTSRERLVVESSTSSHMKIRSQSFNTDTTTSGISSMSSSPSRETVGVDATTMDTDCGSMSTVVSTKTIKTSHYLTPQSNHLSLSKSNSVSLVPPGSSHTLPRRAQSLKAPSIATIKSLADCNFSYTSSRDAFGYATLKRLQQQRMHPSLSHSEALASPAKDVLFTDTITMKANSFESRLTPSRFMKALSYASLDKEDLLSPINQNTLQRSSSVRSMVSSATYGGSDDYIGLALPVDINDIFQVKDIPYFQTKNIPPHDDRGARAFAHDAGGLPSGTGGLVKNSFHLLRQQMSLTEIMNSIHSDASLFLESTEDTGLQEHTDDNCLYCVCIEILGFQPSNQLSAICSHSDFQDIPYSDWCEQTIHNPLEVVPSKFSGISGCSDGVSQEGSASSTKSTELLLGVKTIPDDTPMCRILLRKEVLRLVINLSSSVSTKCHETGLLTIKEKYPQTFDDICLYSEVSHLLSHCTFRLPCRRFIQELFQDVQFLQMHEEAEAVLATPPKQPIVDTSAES
UniProt P26038: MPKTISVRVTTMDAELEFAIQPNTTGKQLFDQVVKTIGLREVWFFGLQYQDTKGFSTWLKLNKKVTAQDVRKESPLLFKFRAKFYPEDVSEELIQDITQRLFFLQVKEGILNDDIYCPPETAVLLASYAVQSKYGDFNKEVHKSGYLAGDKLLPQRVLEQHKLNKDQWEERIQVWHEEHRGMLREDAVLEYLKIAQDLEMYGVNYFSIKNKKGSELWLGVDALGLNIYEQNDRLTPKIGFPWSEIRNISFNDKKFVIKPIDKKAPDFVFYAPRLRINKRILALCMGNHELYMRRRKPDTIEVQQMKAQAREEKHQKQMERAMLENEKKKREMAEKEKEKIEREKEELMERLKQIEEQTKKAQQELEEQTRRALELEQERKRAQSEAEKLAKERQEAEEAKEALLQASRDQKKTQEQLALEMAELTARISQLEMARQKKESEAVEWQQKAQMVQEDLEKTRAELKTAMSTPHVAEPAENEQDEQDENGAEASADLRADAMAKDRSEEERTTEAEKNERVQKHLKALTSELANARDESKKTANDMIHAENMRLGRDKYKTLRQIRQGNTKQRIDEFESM
UniProt P35579: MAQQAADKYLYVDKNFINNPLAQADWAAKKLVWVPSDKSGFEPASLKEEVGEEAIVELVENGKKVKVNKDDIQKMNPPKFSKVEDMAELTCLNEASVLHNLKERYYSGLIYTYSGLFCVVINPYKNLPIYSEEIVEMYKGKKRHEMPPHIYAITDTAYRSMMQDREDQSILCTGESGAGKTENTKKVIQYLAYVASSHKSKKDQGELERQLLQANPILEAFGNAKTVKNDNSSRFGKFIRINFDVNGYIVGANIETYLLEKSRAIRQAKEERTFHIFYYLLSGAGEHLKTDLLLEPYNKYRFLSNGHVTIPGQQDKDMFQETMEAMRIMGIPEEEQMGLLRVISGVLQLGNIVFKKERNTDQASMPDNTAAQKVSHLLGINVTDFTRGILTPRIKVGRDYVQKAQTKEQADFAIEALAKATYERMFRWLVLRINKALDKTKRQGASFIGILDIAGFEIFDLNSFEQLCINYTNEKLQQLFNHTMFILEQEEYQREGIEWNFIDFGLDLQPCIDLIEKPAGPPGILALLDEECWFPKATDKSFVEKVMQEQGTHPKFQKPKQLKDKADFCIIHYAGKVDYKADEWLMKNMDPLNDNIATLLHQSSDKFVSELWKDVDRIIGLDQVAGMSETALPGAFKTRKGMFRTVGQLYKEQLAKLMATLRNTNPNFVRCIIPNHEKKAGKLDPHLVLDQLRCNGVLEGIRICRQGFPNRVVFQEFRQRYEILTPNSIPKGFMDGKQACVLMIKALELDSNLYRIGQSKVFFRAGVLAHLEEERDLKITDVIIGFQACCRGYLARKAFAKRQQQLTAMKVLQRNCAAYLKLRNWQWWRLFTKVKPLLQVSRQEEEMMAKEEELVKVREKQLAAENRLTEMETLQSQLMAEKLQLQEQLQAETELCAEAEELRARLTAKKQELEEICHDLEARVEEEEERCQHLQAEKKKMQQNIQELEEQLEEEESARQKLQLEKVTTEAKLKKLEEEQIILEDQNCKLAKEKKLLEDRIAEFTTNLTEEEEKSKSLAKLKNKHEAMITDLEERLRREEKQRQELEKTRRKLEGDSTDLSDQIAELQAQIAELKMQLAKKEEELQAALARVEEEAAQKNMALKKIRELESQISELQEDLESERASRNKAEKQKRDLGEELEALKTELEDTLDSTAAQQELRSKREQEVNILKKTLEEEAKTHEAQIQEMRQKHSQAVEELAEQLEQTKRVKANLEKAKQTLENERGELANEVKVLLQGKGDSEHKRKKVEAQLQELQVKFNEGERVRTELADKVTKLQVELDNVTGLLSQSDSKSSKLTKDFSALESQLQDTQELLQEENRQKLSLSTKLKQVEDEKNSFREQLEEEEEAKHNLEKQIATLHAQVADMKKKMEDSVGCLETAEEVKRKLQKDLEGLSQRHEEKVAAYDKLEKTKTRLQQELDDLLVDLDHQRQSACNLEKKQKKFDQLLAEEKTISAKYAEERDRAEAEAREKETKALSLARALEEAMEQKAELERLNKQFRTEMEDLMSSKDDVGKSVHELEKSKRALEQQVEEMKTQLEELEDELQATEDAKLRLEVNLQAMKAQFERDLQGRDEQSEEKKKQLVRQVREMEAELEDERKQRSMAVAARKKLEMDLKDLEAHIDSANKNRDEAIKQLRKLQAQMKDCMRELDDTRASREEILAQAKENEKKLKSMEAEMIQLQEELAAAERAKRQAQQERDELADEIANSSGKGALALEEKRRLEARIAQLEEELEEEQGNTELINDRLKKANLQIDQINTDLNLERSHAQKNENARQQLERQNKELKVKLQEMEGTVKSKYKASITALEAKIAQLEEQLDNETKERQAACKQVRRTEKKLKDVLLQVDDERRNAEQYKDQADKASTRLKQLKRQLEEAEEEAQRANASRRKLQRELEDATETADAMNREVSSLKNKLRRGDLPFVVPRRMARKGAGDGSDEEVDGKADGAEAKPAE
UniProt P50552: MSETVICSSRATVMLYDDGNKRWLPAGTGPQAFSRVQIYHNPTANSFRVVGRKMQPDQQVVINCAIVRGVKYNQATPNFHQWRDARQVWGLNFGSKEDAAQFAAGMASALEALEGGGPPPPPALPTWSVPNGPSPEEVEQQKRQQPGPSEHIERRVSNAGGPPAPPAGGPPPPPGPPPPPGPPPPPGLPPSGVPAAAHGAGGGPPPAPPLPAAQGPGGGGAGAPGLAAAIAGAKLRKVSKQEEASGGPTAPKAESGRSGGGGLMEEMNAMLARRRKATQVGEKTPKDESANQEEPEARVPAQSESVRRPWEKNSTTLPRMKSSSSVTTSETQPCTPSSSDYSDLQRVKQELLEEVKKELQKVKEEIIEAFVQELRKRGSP

target: RICTOR (human (endogenous in U87MG, DBTRG-05MG, H4, SW1088)) (UniProt Q6R327); experiment: co-IP; anti-RICTOR IP from U87MG lysates, western blot; control against siRICTOR; normal, serum activation, AZD8055 and JR-AB2-011 treatment

Substance	binding
moesin (MSN) (from UniProt P26038 1-577)	binds
myosin-9 (MYH9) (from UniProt P35579 1-1960)	binds
vasodilator-stimulated phosphoprotein (VASP) (from UniProt P50552 1-380)	binds
